Measured values reported in PMC5690286.
These are yes or no findings as the source states them, for the method shown. In cells and extracts the contact can be indirect. These calls come from enrichment with a bait or labelling near it, and not all partners need be listed. Sequences can lack the tags named with a protein.

Biological target: GST-fused C-terminus (residues 668-845) of Atg9 (Drosophila)
Test: affinity purification with mass spectrometry; pull-down with GST-fused C-terminus (residues 668-845) of Atg9 as bait, LC-MS/MS of the bound proteins; source of the prey proteins not stated; only the target purified

binding: binds
B1: Pals1-associated tight junction protein (Patj), identified by LC-MS/MS in the GST-Atg9-C pull-down (protein, UniProt Q9NB04 1-871)
chain: MHLSADISSALQQIEAVKKGIDESDDPKLQMQTAESLSTILGILQDPVFRTIVHVQDSLSELNAQLAQHPSMLPNDFDIDVAGNLVLSLNGGEVMYDFDEQRSSSHSHSAPGSPDKSGGVGEEPRPQSQNSKGAGVADLYATDYAQIQAIELVNDGTGLGFGIIGARNSGVIVKTILPGGVADKDGRLRSGDHILQIGDVNLHEMVSEQVAAVLRQSGTHVRLVVARPVEQSVPTPQYALEPGTAVVPTRVLVDPAELERYLISTGYPEIFGESSTASTPQTTTEDDRFVYRGETSMLIDPNIDLEELLALPETEKLQVELKKDANGLGITIAGYVCEKEELSGIFVKSVSPGSAADLSGRIRVNDRIIEVDGQSLQGYSNHQAVELLKKSGQVVNLRLERYLRGPKFEQLQQAIAANDKLPSSAPGTPSRAPMPTPVATTSSATTTPSRSITRELEEEALPAPEAFMTTPPSVTTMTTTTLSSFGAGKQLVAVRDSLDGSTKIIPTEVVPLADKTEAKNSGVITRHKYYTDPELSDDAETEIIRKWQKIVGSDVEVIVAQIKKFAVGGLGISLEGTVDVEGGREVRPHHYIRSILPDGPVGVNGVLRSGDELLEVNGERLLGMNHLEVVAILKELPLDVRMVCGRNRNSSLLPFSDDTLKKLSNNFENLLPATDRLVKAKSDGSLATAGSVADGDSVAAAAASFSKLKSRSLEPLTGLAMWSSQPQIIELVKGDRGLGFSILDYQDPLDPNDTLIVIRSLVPGGVAQLDGRLIPGDRLLFVNSINLENASLDQAVQALKGASKGVVRIGVAKPLPMTDNSLKACSNASTTSEETLDAQPSPPALPTVAPPAMPPSASMGAEPDLIPDWRN
